Publication doi:10.1101/2020.06.09.142141
Results are given in words; binding and its absence hold for the method and conditions named. Binding calls can cover weak binding; strength is not graded here.

Target: Plasmopara halstedii RXLR effector PhRXLR-C13 (Plasmopara halstedii)
Experiment: two-hybrid

Row | Binder | binding
1 | ANAC017 (NTL7) (protein, UniProt Q9XIC5 1-557) MADSSPDSCFKGGKFSAPGFRFHPTDEELVMYYLKRKICRKRLRVNVIGVVDVYKMDPEELPGQSMLKTGDRQWFYFTPRSRKYPNAARSNRGTENGYWKATGKDRVIEYNSRSVGLKKTLVFYRGRAPSGERTDWVMHEYTMDEDELGRCKNPQEYYALYKLFKKSGAGPKNGEQYGAPFQEEEWVDDDNEDVNAIAVAVPEQPVVRYEDARRVDERRLFNPVILQLEDIDELLNGIPNAPGVPQRCIPQVNSEEELQSTLVNNSAREFLPNGQQYNRPSSFDSLETAEVTSAPLVFEKEDFIEMDDLLLIPEFGASSTEKAAQFSNHGEFDDFNEFDQLFHDVSMSLDMEPIDQGTSANLSSLSDSANYTSDQKQQLLYQQFQDQTPENQLNNIMDPSTTLNQITSDIWFEDDQAILFDQQQSFSGAFASPSSGVMPDSTNPTMSVNAQGHEIQNGGGTTSQFSSALWALMDSIPSTPASACEGPLNRTFVRMSSFSRMRFNGKANGTPVSTTIAKKGIRNRGFLLLSIVGALCAIFWVLVATVRVSGRSLLLKD | no binding
2 | ANAC016 (NTL3) (protein, UniProt A4FVP6 1-564) MVDSSRDSCFKAGKFSAPGFRFHPTDEELVVYYLKRKICCKKLRVNAIGVVDVYKVDPSELPGLSMLKTGDRQWFFFTPRNRKYPNAARSSRGTATGYWKATGKDRVIEYNSRSVGLKKTLVFYRGRAPNGERTDWVMHEYTMDEEELGRCKNAKEYYALYKLYKKSGAGPKNGEQYGAPFQEEEWVDSDSEDADSVAVPDYPVVRYENGPCVDDTKFCNPVKLQLEDIEKLLNEIPDAPGVNQRQFDEFVGVPQGNSAEVIQSTLLNNSSGEYIDPRTNGMFLPNGQLYNRDSSFQSHLNSFEATSGMAPLLDNEKEEYIEMNDLLIPELGASSTEKSTEFLNHGEFGDVNEYDQLFNDISVFQGTSTDLSCLSNFTNNTSGQRQQLLYEQFQYQTPENQLNNYMHPSTTLNQFTDNMWFKDDQAALYVQPPQSSSGAFTSQSTGVMPESMNPTMSVNPQYKEGQNGGGTRSQFSSALWELLESIPSTPASACEGPLNQTFVRMSSFSRIRFNGTSVTSRKVTVAKKRISNRGFLLLSIMGALCAIFWVFKATVGVMGRPLLS | binds
